The text below walks through data of PubChem BioAssay AID2685 (National Center for Advancing Translational Sciences (NCATS), 2010).

This assay can be described thus: qHTS Assay for Lipid Storage Modulators in Drosophila S3 Cells.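 On cell number change: cells counted by Cell Tracker Red CMTPX staining in the red channel.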 The note with it: BODIPY lipid droplet fluorescence, 18-24 h; for cell number change: measured here: cell count max response, cells fed with added oleic acid. In outline: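 Laser-scanning cytometry quantifies lipid droplet accumulation (500–530 nm total intensity; droplet/cell object ratio) in oleic acid-fed (400 uM added) Drosophila S3 cells treated with a concentration series. 20 uM Triacsin C defined 100% inhibition.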
On the technique in general: qHTS replaces the single test concentration by a dilution series.

The mark [1] stands for this setting: measured here: cell number channel AC50, cells fed with added oleic acid.
[2] abbreviates: measured here: lipid fluorescence (Fed channel) AC50, cells fed with added oleic acid.

The list shows a part of the results. These are further read-outs of the screen, such as a control signal, another cell line or another target. No call is given for them. The list favours compounds with an active or inconclusive main result. Words in brackets tell the shape of the fitted curve; partial curves, single points and poor fits give uncertain potencies.

The term AC50 denotes the midpoint of the concentration-response curve, whichever way the signal moves. A lower AC50 goes with activity at low concentration. Consider `O=C(N/N=C/c1ccc(F)cc1)c1ccc(OCc2ccccc2)cc1`, for which the cell number change was 26.6%. The AC50 under setting [1] was 1.16 µM [rising, full curve, poor fit]. Moreover, the AC50 under setting [2] was 29.1 µM [rising, single point].

Take `Fc1cccc(CCN2CCNC[C@H]2Cc2cccc3ccccc23)c1`: under setting [2], the AC50 was 0.517 µM [falling, partial curve].

Regarding `CN(C)CCOc1cccc(Br)c1`, the cell number change was -13.2%. In addition, the AC50 under setting [2] is 35.5 µM [falling, single point].

As for `O=C(Cc1ccc(Cl)cc1)Nc1ccc(SC(F)F)cc1`, the cell number change was -36.8%. The AC50 under setting [1] was 32.6 µM [falling, partial curve, poor fit]. For the same compound, the AC50 under setting [2] was 6.51 µM [falling, single point].

Take `COc1ccc(OC)c(NC(=O)c2ccc(CN(c3cc(Cl)ccc3C)S(=O)(=O)c3ccccc3)cc2)c1`: the cell number change was -16.5%. The AC50 under setting [2] was 1.84 µM [falling, full curve, poor fit].

`COc1ccc(C2Nc3ccccc3C(=O)N2NS(C)(=O)=O)c(OC)c1` (stereo unspecified): the cell number change is 33.3%. For the same compound, the AC50 under setting [1] is 32.6 µM [rising, single point]. Also, the AC50 under setting [2] was 29.1 µM [rising, partial curve, poor fit].

In the case of `COc1cc(NC(=O)c2ccc(C)cc2C)ccc1NC(=O)c1cc2ccccc2o1`, the cell number change is -10.8%.

With `O=C(COc1c(Br)cc(Br)c2cccnc12)N1CCCCC1`, the AC50 under setting [1] was 6.51 µM [rising, single point].

In the case of `Cc1cc(S(=O)(=O)NC2CCCCC2)ccc1OCC(=O)NCc1ccccn1`, the AC50 by setting is: under setting [1], 0.731 µM [rising, full curve]; under setting [2], 0.92 µM [rising, full curve].

Regarding `CCc1nnc(NC(=O)CSc2nnc(-c3ccccc3O)n2-c2ccc(C)cc2C)s1`, the cell number change is -40.3%. Further, the concentration at half-maximal activity (AC50) under setting [1] was 20.6 µM [falling, single point]. In addition, the AC50 under setting [2] was 29.1 µM [falling, single point].

Consider `CCCCNC(=O)Cn1cnc2c(cnn2-c2ccc(C)c(C)c2)c1=O`, for which the cell number change turned out to be 21.6%. For the same compound, the AC50 under setting [1] is 1.3 µM [rising, single point]. Also, the AC50 under setting [2] is 1.3 µM [rising, full curve].

For the compound `O=C(CCCCl)NC(=S)Nc1ccc(CN2CCOCC2)cc1`, the cell number change was -38.2%. Under setting [1], the AC50 was 29.1 µM [falling, single point]. The AC50 under setting [2] was 29.1 µM [falling, single point].

With `CCc1c(C)nc2ncnn2c1N1CCCC(C(=O)Nc2cc(F)ccc2C)C1` (stereo unspecified), the cell number change is -45.5%. Besides, the AC50 under setting [2] was 0.058 µM [rising, full curve, poor fit].

As for `CN1CCN(c2ccccc2NC(=O)COc2ccccc2)CC1`, the cell number change turned out to be 9.14%. Besides, the AC50 under setting [2] is 0.731 µM [falling, full curve].

For the compound `CCOc1ccccc1NC(=O)c1cnc(NS(=O)(=O)c2ccccc2)nc1`, the cell number change is -2.56%. Further, the AC50 under setting [2] is 0.00461 µM [rising, full curve, poor fit].

Regarding `CCC1CCc2c(sc(NC(=O)c3ccco3)c2C(N)=O)C1` (stereo unspecified), the cell number change was -50.7%. In addition, the AC50 under setting [1] was 29.1 µM [falling, single point]. Moreover, the AC50 under setting [2] is 29.1 µM [falling, single point].

Regarding `O=C(O)C1CCN(C(=O)CSc2nc3ccccc3s2)CC1`, the cell number change came to 11.8%. Moreover, under setting [2], the AC50 was 3.66 µM [falling, single point].

Consider `COc1ccc(NC(=O)C(C)N(C)Cc2ccc3ccccc3c2)cc1` (stereo unspecified), for which the cell number change was -26.7%. Moreover, the AC50 under setting [2] is 6.51 µM [falling, single point].

As to `FC(F)(F)c1ccc(Cl)c(N/N=C/c2ccc(N3CCOCC3)s2)c1`, the cell number change is -75.6%. Moreover, the AC50 under setting [1] was 23.1 µM [falling, partial curve]. Further, the AC50 under setting [2] was 18.4 µM [falling, partial curve, poor fit].

`CN1CCN(/C=N/c2c(C#N)cnn2C)CC1`: the cell number change is -27.5%. Also, the AC50 under setting [2] was 29.1 µM [falling, single point].

In the case of `CCOC(=O)Cc1csc(NC(=O)COc2ccccc2OCC)n1`, the cell number change was -22.5%. Moreover, the AC50 under setting [2] is 0.651 µM [falling, full curve, poor fit].

Turning to `O=C(CCC(=O)Nc1ccccc1Cl)N/N=C1\CCCc2ccccc21`, the cell number change is 2.19%. Under setting [2], the AC50 is 2.59 µM [rising, single point].

For `CN(C)CCCN(C(=O)c1ccc2c(c1)CCCC2)c1nc2ccc(Cl)cc2s1`, the cell number change was -38.4%. The AC50 under setting [1] was 23.1 µM [falling, single point]. Moreover, under setting [2], the AC50 was 29.1 µM [falling, single point].

As for `CCCN(C(=O)COC(=O)Cn1c(=O)oc2ccccc21)c1c(N)n(Cc2ccccc2)c(=O)[nH]c1=O`, the cell number change is -9.49%. Besides, the AC50 under setting [2] was 6.51 µM [falling, single point].

For the compound `CCOC(=O)Cn1nc(-c2ccccc2)c2cnc3ccc(C)cc3c21`, the cell number change was -57.1%. Also, under setting [1], the AC50 was 11.6 µM [falling, partial curve]. Under setting [2], the AC50 was 8.2 µM [falling, partial curve].

For the compound `COc1ccc(S(=O)(=O)N(CC(=O)NCc2ccncc2)Cc2ccccc2)cc1`, the cell number change stood at 27.6%.

Consider `O=C(OCCN=C1NS(=O)(=O)c2ccccc21)c1ccccc1`, for which the cell number change was -28.7%. Also, the AC50 under setting [1] was 0.731 µM [falling, full curve, poor fit]. Moreover, the AC50 under setting [2] is 1.64 µM [falling, partial curve].

For `O=C(CSc1nnc(-c2cccnc2)n1Cc1ccccc1)N1CCOCC1`, the cell number change worked out at 32.1%. Moreover, the AC50 under setting [1] was 0.164 µM [rising, full curve]. Moreover, under setting [2], the AC50 is 3.26 µM [rising, single point].

`C=CCn1cnc2c(nnn2-c2ccc(OC)c(OC)c2)c1=O`: the cell number change was determined as 153%. For the same compound, the AC50 under setting [1] is 29.1 µM [rising, single point].

On to `Cc1ccccc1-n1ncc(C(C)NS(=O)(=O)c2ccccc2Cl)c1C` (stereo unspecified), for which the cell number change is -1.13%. Also, the AC50 under setting [2] was 0.517 µM [rising, single point].

As for `Cc1ccc(C(=O)OC(C(=O)O)C(OC(=O)c2ccc(C)cc2)C(=O)O)cc1` (stereo unspecified), the cell number change is -25.6%. Under setting [2], the AC50 is 16.4 µM [falling, single point].

`COc1ccc(/C=N/NC(=S)Nc2ccccc2)cc1COc1ccccc1F`: the AC50 under setting [2] was 0.731 µM [rising, full curve].

As to `CCOC(=O)c1c(CC(C)C)csc1NC(=O)CCl`, the cell number change came to 12.9%. The AC50 under setting [2] was 20.6 µM [rising, single point].

`CCOc1ccc(CCNC(=O)c2cc(C)nn2-c2ccccc2)cc1`: the cell number change stood at 56.5%. The AC50 under setting [1] was 1.64 µM [rising, partial curve, poor fit]. The AC50 under setting [2] is 5.17 µM [rising, partial curve].

For `CC(=O)Oc1ccc2oc(=O)c3c(c2c1)CCCN3C(=O)CN1CCN(c2ncccn2)CC1`, the cell number change was -33%. Moreover, the AC50 under setting [1] is 18.4 µM [falling, single point].

With `c1ccc(-c2cn(CC3CCCCC3)nn2)cc1`, the cell number change was determined as 10.2%.

As to `CC(=O)c1cccc(NC(=O)NCc2ccco2)c1`, the AC50 is 7.31 µM [falling, single point] under setting [1] and 6.51 µM [falling, single point] under setting [2].

In the case of `CC(C)=NNc1nc(-c2ccc([N+](=O)[O-])cc2)cs1`, the cell number change is 93.5%. Also, under setting [1], the AC50 was 18.4 µM [rising, single point].

As for `COc1cc2c(C#N)c(N3CCCC3)nc(N)c2c(N)n1`, the AC50 under setting [2] is 10.3 µM [falling, partial curve].

As for `CC1=NN(C(N)=S)C(=O)C1N=Nc1cccc(Cl)c1` (stereo unspecified), the cell number change is -49.1%. Further, the AC50 under setting [1] was 6.51 µM [falling, full curve, poor fit]. Under setting [2], the AC50 is 8.2 µM [falling, partial curve].

For the compound `O=C(c1ccc2c(c1)C(=O)N(Cc1ccco1)C2O)N1CCOCC1` (stereo unspecified), the cell number change was -59.2%. Moreover, under setting [1], the AC50 is 1.3 µM [falling, full curve]. For the same compound, under setting [2], the half-maximal activity concentration (AC50) is 1.03 µM [falling, full curve].

Take `Cc1cccc(N2CCN(C(=O)c3ccccn3)CC2C)c1` (stereo unspecified): the AC50 under setting [2] is 2.91 µM [falling, single point].

For the compound `CC[C@@H](C)[C@H](NC(=O)Cc1c(C)c2c(cc(C)c3c(C)c(C)oc32)oc1=O)C(=O)O`, the cell number change came to 24.8%. Moreover, the AC50 under setting [1] was 6.51 µM [rising, single point]. Under setting [2], the AC50 is 13 µM [rising, partial curve].

Regarding `COCCN(CC(=O)NCc1ccc(F)cc1)C(=O)CCC(=O)Nc1ccccn1`, the cell number change stood at 9.35%.

In the case of `CC(=O)c1cccc(OCc2cc(C(=O)N3C[C@H]4CC[C@H]3C4)no2)c1`, the cell number change worked out at 5.89%.

Take `COC(=O)c1ccccc1C(=O)N1CCCC(CNC(=O)c2ccc(F)cc2)C1` (stereo unspecified): the cell number change is -6.49%.

Consider `COc1ccc(Nc2nc(Cl)nc(NCCO)n2)cc1`, for which the cell number change turned out to be 11.2%. For the same compound, the AC50 under setting [1] was 0.146 µM [falling, full curve, poor fit]. Also, the AC50 under setting [2] is 6.51 µM [falling, single point].

In the case of `O=C(NCc1ccc2c(c1)OCO2)c1cnc2n(c1=O)CCS2`, the cell number change is 21.8%. Also, under setting [2], the AC50 was 29.1 µM [rising, single point].

Turning to `COCCNC(=S)N(CCc1c(C)[nH]c2ccc(Cl)cc12)Cc1cccnc1`, the cell number change was determined as 23.1%. The AC50 under setting [2] is 2.59 µM [rising, full curve, poor fit].

Regarding `COc1ccc(OCC(=O)NCc2n[nH]c(=O)c3ccccc23)cc1`, the cell number change is -24.8%. Moreover, under setting [2], the AC50 was 2.91 µM [falling, partial curve, poor fit].

Consider `CCOC(=O)CSc1nnc(CSc2nc3sc4c(c3c(=O)[nH]2)CCCC4)n1-c1ccccc1`, for which the cell number change was 34.6%. For the same compound, under setting [1], the AC50 was 23.1 µM [rising, single point].

As for `COCCn1nnnc1SCC(=O)c1ccccc1`, the AC50 under setting [2] is 25.9 µM [falling, partial curve].

For `O=C(Nc1ccc2[nH]c3c(c2c1)CCCC3)c1ccco1`, the cell number change was found to be 229%. Under setting [1], the AC50 is 9.2 µM [rising, partial curve]. Also, the AC50 under setting [2] is 6.51 µM [rising, single point].

As to `Cc1cc2n(n1)C(c1ccco1)Nc1ccccc1-2` (stereo unspecified), the cell number change came out at 17.8%.

`COc1ccc(C(CNC(=O)c2oc3c(Cl)cccc3c2C)N2CCCC2)cc1` (stereo unspecified): the AC50 under setting [1] was 6.51 µM [rising, single point].

Consider `COc1ccc(S(=O)(=O)N(CC(=O)N/N=C/c2cccs2)c2ccc(C)cc2)cc1OC`, for which the cell number change was 12.4%. The AC50 under setting [2] is 0.731 µM [rising, full curve].
